According to patent EP0114002B1, “Benzothiopyrano(4,3,2,-cd)indazoles, their pharmaceutical compositions and methods for their production” (WARNER-LAMBERT COMPANY, priority 1983, dated 1984):
Where “and” joins values, the source holds several entries; their conditions need not be identical. Equal entries are not always repeated. At least one read-out could not be matched to a standard name with certainty.

Test system: lymphocytic leukemia P388
Experiment: in vivo lymphocytic leukemia P388 test
Set-up: species or system mice
Description: Another test protocol is the in vivo lymphocytic leukemia P388 test. The animals used are either male or female CD2F, mice. There are six or seven animals per test group. The tumor transplant is by intraperitoneal injection of dilute ascitic fluid containing cells of lymphocytic leukemia P388. The test compounds are administered intraperitoneally once daily for five consecutive days at various doses following tumor inoculation. The animals are weighed and survivors are recorded on a regular basis for 30 days. A compound is designated "toxic" if, at a given dose, all animals died prior to four days after the first injection of drug. A ratio of survival time for treated (T)/control (C) animals is calculated. A criterion for efficacy is a ratio T/C times 100 greater than or equal to 125. See Cancer Chemotherapy Reports, Part 3, 3; 1 (1972) for a comprehensive discussion of the protocol.

[1] = Dose 50.00 mg/kg intraperitoneally once daily for five days, 50 mg/kg

| Compound | P388 in vivo T/C × 100 [1] | P388 in vivo T/C × 100 (Dose 100.00 mg/kg intraperitoneally once daily for five days, 100 mg/kg) | P388 in vivo T/C × 100 (Dose 25.00 mg/kg intraperitoneally once daily for five days, 25 mg/kg) |
| --- | --- | --- | --- |
| CN(C)CCCn1nc2c3c(c(N)ccc31)Sc1ccccc1-2 [CH2CH2CH2N(CH3)2 / NH2] | 129 | 197 | – |
| CN(C)CCCn1nc2c3c(c([N+](=O)[O-])ccc31)Sc1ccccc1-2 [CH2CH2CH2N(CH3)2 / NO2, N,N dimethyl-5-nitro-2H[1]benzothiopyrano[4,3,2-cd]indazole-2-propanamine] | 135 and 174 and 153 | – | 126 |
